Record: PubChem BioAssay AID1259299 (Sanger Institute, 2017)

Test: 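Essential genes and drug-synergistic partners among kinases and colorectal mutation genes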 (primary screen)
Cells: human CAR1 colorectal cancer cells
Reagents: siRNA pool against human genes
Conditions: anchor drug BYL719 1 µM, cetuximab 5 µg/ml or trametinib 10 nM, or DMSO vehicle alone; exposure length not given
Detection: 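Mean replicate viability versus non-targeting controls, turned into robust z-scores, plus drug synergy scores for BYL719, cetuximab and trametinib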
Direction: viability robust z-score, knock-down alone and viability, knock-down alone (DMSO): higher = more viable cells; synergy score with BYL719 and synergy score with cetuximab and synergy score with trametinib: higher = stronger synergy with drug (synthetic lethal)
Active means: 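a gene is called essential if its knock-down-alone viability z-score drops under -3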
Meaning of the calls: active = essential (knock-down alone); inactive = no change
The whole screen tested 794 reagents; shown is a part drawn at random. In the full data, 9 (1.1%) are marked active. 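Calls rest on knock-down alone; synergy scores play no part in calls, and no gene passed the synergy cut.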 No viability above 1 is reported: the scale is capped. Not given: the amount of reagent, the time to read-out.

| gene | PubChem SID | viability robust z-score, knock-down alone | viability, knock-down alone (DMSO) (fraction of control) | synergy score with BYL719 | synergy score with cetuximab | synergy score with trametinib | call |
| --- | --- | --- | --- | --- | --- | --- | --- |
| CDC73 (cell division cycle 73) | SID134319235 | -0.222 | 0.907 | -0.227 | -0.16 | -0.227 | inactive |
| ERBB3 (erb-b2 receptor tyrosine kinase 3) | SID135620617 | 0.789 | 1 | -0.108 | 0.0438 | 0.223 | inactive |
| ITK (IL2 inducible T cell kinase) | SID135620623 | -2.29 | 0.715 | -0.324 | -0.242 | -0.235 | inactive |
| LRRK2 (leucine rich repeat kinase 2) | SID152152689 | 0.546 | 0.978 | -0.0744 | -0.0938 | -0.0651 | inactive |
| ROCK2 (Rho associated coiled-coil containing protein kinase 2) | SID135620850 | 0.289 | 0.954 | -0.0764 | -0.0397 | 0.0791 | inactive |
| MAPK12 (mitogen-activated protein kinase 12) | SID152156302 | 0.789 | 1 | -0.203 | -0.000425 | -0.147 | inactive |
| TESK1 (testis associated actin remodelling kinase 1) | SID152149255 | 0.789 | 1 | -0.0679 | -0.0401 | -0.125 | inactive |
| SMAD2 (SMAD family member 2) | SID152156776 | 0.511 | 0.974 | -0.0601 | -0.0269 | -0.143 | inactive |
| EGFR (epidermal growth factor receptor) | SID135620613 | 0.49 | 0.972 | -0.112 | -0.0141 | -0.0609 | inactive |
| CAMK1 (calcium/calmodulin dependent protein kinase I) | SID56478929 | 0.0271 | 0.93 | -0.0332 | -0.0124 | -0.0698 | inactive |
| GRK7 (G protein-coupled receptor kinase 7) | SID135620854 | -0.132 | 0.915 | -0.0494 | -0.0222 | -0.024 | inactive |
| NEK3 (NIMA related kinase 3) | SID152154962 | 0.789 | 1 | -0.0279 | -0.0333 | -0.00556 | inactive |
| CDK6 (cyclin dependent kinase 6) | SID56478600 | 0.538 | 0.977 | -0.028 | 0.0294 | 0.0312 | inactive |
| LIMK2 (LIM domain kinase 2) | SID152148517 | 0.789 | 1 | -0.0804 | -0.073 | -0.0769 | inactive |
| PANK1 (pantothenate kinase 1) | SID56478765 | 0.435 | 0.967 | -0.207 | -0.0723 | -0.0926 | inactive |
| ETNK2 (ethanolamine kinase 2) | SID56478982 | -0.0738 | 0.92 | -0.0989 | 0.0288 | -0.138 | inactive |
| KSR2 (kinase suppressor of ras 2) | SID152149204 | 0.789 | 1 | -0.169 | -0.0663 | -0.113 | inactive |
| DDR1 (discoidin domain receptor tyrosine kinase 1) | SID152155868 | -0.748 | 0.858 | -0.127 | -0.122 | -0.0346 | inactive |
| CAMKK1 (calcium/calmodulin dependent protein kinase kinase 1) | SID135620905 | 0.789 | 1 | -0.163 | -0.066 | -0.0955 | inactive |
| TRPM6 | SID56478975 | 0.789 | 1 | -0.148 | -0.073 | -0.22 | inactive |
| SGK3 (serum/glucocorticoid regulated kinase family member 3) | SID56478777 | 0.412 | 0.965 | -0.124 | -0.105 | -0.074 | inactive |
| NR2F2 (nuclear receptor subfamily 2 group F member 2) | SID134309873 | -0.351 | 0.895 | -0.0961 | -0.12 | -0.0596 | inactive |
| CMPK1 (cytidine/uridine monophosphate kinase 1) | SID56478766 | 0.789 | 1 | -0.078 | -0.073 | -0.221 | inactive |
| MVK (mevalonate kinase) | SID56479115 | 0.789 | 1 | -0.127 | -0.00995 | -0.0963 | inactive |
| MST1R (macrophage stimulating 1 receptor) | SID152152898 | -0.299 | 0.899 | -0.113 | -0.0776 | -0.0979 | inactive |
| CALM3 (calmodulin 3) | SID152148336 | -0.796 | 0.854 | -0.012 | -0.0148 | 0.00349 | inactive |
| LMTK1 (lemur tail kinase 1) | SID152151616 | 0.789 | 1 | -0.0525 | 0.0869 | 0.00454 | inactive |
| CDK10 (cyclin dependent kinase 10) | SID152152801 | 0.0193 | 0.929 | -0.103 | -0.0675 | 0.0393 | inactive |
| MAP3K12 (mitogen-activated protein kinase kinase kinase 12) | SID56478643 | 0.789 | 1 | -0.0936 | -0.0502 | -0.177 | inactive |
| BPTF (bromodomain PHD finger transcription factor) | SID152156181 | -1.58 | 0.781 | -0.0552 | -0.0112 | -0.0162 | inactive |
| DTYMK (deoxythymidylate kinase) | SID135621237 | 0.116 | 0.938 | -0.214 | -0.131 | -0.0778 | inactive |
| PRP4K (pre-mRNA processing factor kinase PRP4K) | SID152152780 | -2.23 | 0.721 | -0.184 | -0.252 | -0.0965 | inactive |
| PRKAG1 (protein kinase AMP-activated non-catalytic subunit gamma 1) | SID135621699 | 0.295 | 0.954 | -0.242 | 0.0124 | -0.00504 | inactive |
| TTK (TTK protein kinase) | SID56478775 | 0.253 | 0.95 | -0.183 | 0.0133 | -0.0382 | inactive |
| NPR2 (natriuretic peptide receptor 2) | SID152151652 | 0.432 | 0.967 | -0.0735 | 0.0327 | -0.0742 | inactive |
| FRK (fyn related Src family tyrosine kinase) | SID56478519 | -0.791 | 0.854 | -0.263 | -0.119 | -0.13 | inactive |
| CDKN2C (cyclin dependent kinase inhibitor 2C) | SID56478606 | 0.789 | 1 | -0.113 | -0.073 | 0.0492 | inactive |
| PSKH1 (protein serine kinase H1) | SID135620975 | 0.789 | 1 | -0.183 | -0.035 | -0.208 | inactive |
| DAPK1 (death associated protein kinase 1) | SID135620826 | 0.789 | 1 | -0.11 | -0.0257 | -0.167 | inactive |
| IRAK1 (interleukin 1 receptor associated kinase 1) | SID56478862 | -1.52 | 0.787 | -0.0757 | 0.0261 | 0.141 | inactive |
| TRIB2 (tribbles pseudokinase 2) | SID56479059 | -0.0885 | 0.919 | -0.0871 | 0.0299 | -0.0425 | inactive |
| CKMT2 (creatine kinase, mitochondrial 2) | SID152154085 | 0.789 | 1 | -0.0505 | -0.0401 | -0.125 | inactive |
| CIB2 (calcium and integrin binding family member 2) | SID134316517 | -0.232 | 0.906 | -0.273 | -0.0856 | -0.139 | inactive |
| GSK3A (glycogen synthase kinase 3 alpha) | SID56478467 | -1.9 | 0.752 | -0.182 | -0.195 | -0.0274 | inactive |
| PKN3 (protein kinase N3) | SID56478823 | -0.147 | 0.914 | -0.139 | -0.0531 | 0.00297 | inactive |
| TAOK2 (TAO kinase 2) | SID57288958 | 0.789 | 1 | -0.141 | -0.073 | -0.126 | inactive |
| LRRK1 (leucine rich repeat kinase 1) | SID135620970 | 0.691 | 0.991 | -0.158 | -0.0814 | -0.192 | inactive |
| HIPK1 (homeodomain interacting protein kinase 1) | SID135620891 | -0.839 | 0.85 | -0.246 | -0.212 | -0.294 | inactive |
| RAF1 (Raf-1 proto-oncogene, serine/threonine kinase) | SID152152442 | 0.789 | 1 | -0.139 | -0.073 | -0.158 | inactive |
| GSK3B (glycogen synthase kinase 3 beta) | SID56478468 | 0.404 | 0.964 | -0.195 | -0.106 | -0.178 | inactive |

A portion of the results above:
| gene | PubChem SID | viability robust z-score, knock-down alone | viability, knock-down alone (DMSO) (fraction of control) | synergy score with BYL719 | synergy score with cetuximab | synergy score with trametinib | call |
| --- | --- | --- | --- | --- | --- | --- | --- |
| PKN3 (protein kinase N3) | SID56478823 | -0.147 | 0.914 | -0.139 | -0.0531 | 0.00297 | inactive |
| TAOK2 (TAO kinase 2) | SID57288958 | 0.789 | 1 | -0.141 | -0.073 | -0.126 | inactive |
| LRRK1 (leucine rich repeat kinase 1) | SID135620970 | 0.691 | 0.991 | -0.158 | -0.0814 | -0.192 | inactive |
| HIPK1 (homeodomain interacting protein kinase 1) | SID135620891 | -0.839 | 0.85 | -0.246 | -0.212 | -0.294 | inactive |
| RAF1 (Raf-1 proto-oncogene, serine/threonine kinase) | SID152152442 | 0.789 | 1 | -0.139 | -0.073 | -0.158 | inactive |
| GSK3B (glycogen synthase kinase 3 beta) | SID56478468 | 0.404 | 0.964 | -0.195 | -0.106 | -0.178 | inactive |
